Structures can show the parent of a compound that is named as a salt. This is one part of the list. No stated cut-off is given here; in the data, active = 0.5 or less and inactive = the rest. Repeats are few or missing, and single values can be far off.
Tested on: SK-MEL-28
Assay: EEF2K protein level normalised to actin (western blot) after treatment (ratio (EEF2K/Actin)); higher = more EEF2K protein remaining (less EEF2K suppression)
Settings: 5 µM; 24 h

SMILES | EEF2K protein level normalised to actin
COc1cc2c3cc1Oc1c(OC)c(OC)cc4c1[C@@H](Cc1ccc(O)c(c1)Oc1ccc(cc1)C[C@@H]3N(C)CC2)N(C)CC4 [Berbamine (dihydrochloride)] | inactive: 0.96
O=S(=O)(O)CCS [Mesna] | inactive: 0.55
COc1cc2c(Oc3ccc4[nH]c(C)cc4c3F)ccnc2cc1OCC1(N)CC1 [Anlotinib (AL3818) dihydrochloride] | inactive: 0.51
COc1cccc2c1C(=O)c1c(O)c3c(c(O)c1C2=O)C[C@@](O)(C(=O)CO)C[C@@H]3O[C@H]1C[C@H](N)[C@H](O[C@@H]2CCCCO2)[C@H](C)O1 [Pirarubicin] | inactive: 0.66
Cc1nc(Nc2ncc(C(=O)Nc3c(C)cccc3Cl)s2)cc(N2CCN(CCO)CC2)n1 [Dasatinib] | inactive: 1
Cc1nc(=O)c2cc(CN(C)c3ccc(C(=O)N[C@@H](CCC(=O)O)C(=O)O)s3)ccc2[nH]1 [Raltitrexed] | inactive: 1.71
C=CC(=O)Nc1cc(Nc2nccc(-c3cn(C)c4ccccc34)n2)c(OC)cc1N(C)CCN(C)C [Osimertinib mesylate] | active: 0.32
COc1cc2nccc(Oc3ccc(NC(=O)C4(C(=O)Nc5ccc(F)cc5)CC4)cc3)c2cc1OC [Cabozantinib malate (XL184)] | inactive: 2.3
CO[C@H]1C[C@@H]2CC[C@@H](C)[C@@](O)(O2)C(=O)C(=O)N2CCCC[C@H]2C(=O)O[C@H]([C@H](C)C[C@@H]2CC[C@@H](OCCO)[C@H](OC)C2)CC(=O)[C@H](C)/C=C(\C)[C@@H](O)[C@@H](OC)C(=O)[C@H](C)C[C@H](C)/C=C/C=C/C=C/1C [Everolimus (RAD001)] | inactive: 1.64

As entered above.
EEF2K protein level normalised to actin with `Cc1nc(=O)c2cc(CN(C)c3ccc(C(=O)N[C@@H](CCC(=O)O)C(=O)O)s3)ccc2[nH]1` [Raltitrexed] is entered as inactive: 1.71
EEF2K protein level normalised to actin with `C=CC(=O)Nc1cc(Nc2nccc(-c3cn(C)c4ccccc34)n2)c(OC)cc1N(C)CCN(C)C` [Osimertinib mesylate] is entered as active: 0.32
